Measured values reported in PubChem BioAssay AID1347076 (National Center for Advancing Translational Sciences (NCATS), 2019).
Among all 400,000 compounds or so, about 13,000 (3.2%) were called active. The shares of active, inactive and inconclusive entries below differ from those in the screen. The call rests on the fitted dose curve; in most records, active means well fitted cell-killing curve with a large enough effect; inconclusive means small, poorly fitted or top-dose-only effect, or effect the other way; inactive means flat fitted curve, though single readings scatter. Where the call is inconclusive, the potency comes from a doubtful curve fit.

Assay: qHTS assay for MDR1-selective chemotherapeutics: Primary screen using the drug-selected MDR subline cells KB-V1; further: nearly all actives have a fitted effect of over 60% in size
Details: KB-V1 MDR cells viability, CellTiter-Glo, 72 h; activity change, negative = cytotoxicity: at 46.1 µM (top of the series)
Outline: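 Cytotoxicity via CellTiter-Glo luminescence after 72 h compound exposure at 37 degrees C. Cells: drug-selected KB-V1 line, DMEM phenol-red free plus 10% FBS. Compounds tested at multiple concentrations; normalized data fitted to concentration-effect curves.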
On the % scale 0 is the no-effect control and ±100 the full control effect; potency means the concentration at half of the fitted maximal effect.

Row | SMILES | Potency | activity change, negative = cytotoxicity
1 | Cc1cccc(C)c1NC(=O)C(c1cccc([N+](=O)[O-])c1)N(C)C(=O)c1ccccn1 (configuration not stated) | inconclusive: 8.2 µM [cytotoxic, partial curve] | 
2 | O=C(NNC(=O)c1cc(-c2cccc(Br)c2)nc2ccccc12)c1csc(N2CCOCC2)n1 | inconclusive: 29.1 µM [cytotoxic, single point] | 
3 | CCc1ccc(OC(C)C(=O)Nc2c(C(=O)c3ccccc3)oc3ccccc23)cc1 (configuration not stated) | inconclusive: 16.4 µM [cytotoxic, single point] | 
4 | COc1ccc2cc3cc(C(=O)NCCC(C)C)oc3nc2c1 | inconclusive: 0.58 µM [cytotoxic, full curve, poor fit] | 
5 | Cc1[nH]n(C(N)=S)c(=O)c1N=Nc1ccc(S(=O)(=O)N2CCCC2)cc1 | inconclusive: 7.31 µM [rising, partial curve, poor fit] | 
6 | Cc1cccc(COC[C@H](Cc2ccccc2)N2CCN(C(=O)c3cc(Cl)cc(Cl)c3)CCC2=O)c1 | inconclusive: 29.1 µM [cytotoxic, single point] | 
7 | Cc1ccc(NC(=O)CCNS(=O)(=O)c2ccccc2)c(C(=O)c2ccccc2)c1 | inconclusive: 8.2 µM [cytotoxic, partial curve] | 
8 | CS(=O)(=O)N(CC(=O)NCCSc1ccccc1)c1cc(C(F)(F)F)ccc1Cl | inactive | 
9 | Cc1ccsc1C(=O)NNC(=O)c1ccccc1F | inconclusive: 14.6 µM [cytotoxic, partial curve] | 
10 | COc1ccc(CC(=O)Nc2cccc(C(C)=O)c2)cc1S(=O)(=O)N1CCOCC1 |  | inconclusive: 14.1%
11 | Cc1ccccc1CSCCNC(=O)c1ccc(N(C)S(=O)(=O)c2ccccc2)cc1 | active: 13 µM | 
12 | COc1ccc(NC(=O)C(=O)NCCN2CCN(C(=O)c3ccc(C(C)(C)C)cc3)CC2)cc1 | inactive | 
13 | CCOc1ccccc1Oc1cn[nH]c1-c1ccc(O)cc1O | inactive | 
14 | Cc1ccccc1-n1c(C)n[nH]c1=S | inactive | 
15 | NC1=NC(=Nc2ccc(S(N)(=O)=O)cc2)c2ccccc21 | inactive | 
16 | CCc1ccc(NC(=O)CSc2nnc(C3CC3)n2CC2CCCO2)cc1 (configuration not stated) | inconclusive: 9.2 µM [cytotoxic, partial curve] | 
17 | CC1CCCCC1NC(=O)COC(=O)c1ccc(S(=O)(=O)NCc2ccco2)cc1 (configuration not stated) | inconclusive: 9.2 µM [rising, partial curve, poor fit] | 
18 | CC(=O)Nc1ccc(S(=O)(=O)Nc2cccc(-c3nc4cc(C)ccc4o3)c2)cc1 | inconclusive: 23.1 µM [cytotoxic, single point] | 
19 | CC(C)c1ccc(C2/C(=C(\O)c3ccc4c(c3)OCCO4)C(=O)C(=O)N2CCN2CCOCC2)cc1 (configuration not stated) | inconclusive: 14.6 µM [cytotoxic, partial curve, poor fit] | 
20 | C[C@@]12C(=O)N(Cc3ccc(F)cc3)CC(=O)N1[C@H]1c3cc(Cl)ccc3OC[C@@H]1[C@@H]2c1ccccc1 | inactive | 
21 | Cc1cn(C(=O)c2ccccc2)c(=S)n1-c1ccc(Cl)cc1 | inconclusive: 23.1 µM [cytotoxic, single point] | 
22 | O=C(Nc1nc2c(s1)CN(Cc1ccccc1)CC2)c1c(F)cccc1F | inconclusive: 9.2 µM [cytotoxic, partial curve, poor fit] | 
23 | CCN1C(=O)[C@H]2[C@@H](c3ccc(-c4ccc(F)cc4)cc3)N[C@@](CC(C)C)(C(=O)OC)[C@H]2C1=O | inconclusive: 16.4 µM [cytotoxic, partial curve] | 

Pulled one by one from above (2):
Row | SMILES | Potency | activity change, negative = cytotoxicity
21 | Cc1cn(C(=O)c2ccccc2)c(=S)n1-c1ccc(Cl)cc1 | inconclusive: 23.1 µM [cytotoxic, single point] | 
2 | O=C(NNC(=O)c1cc(-c2cccc(Br)c2)nc2ccccc12)c1csc(N2CCOCC2)n1 | inconclusive: 29.1 µM [cytotoxic, single point] | 

(more compounds)

Row | SMILES | Potency | activity change, negative = cytotoxicity
24 | Cc1cccc(NC(=O)c2ccc(N3CCOCC3)c([N+](=O)[O-])c2)n1 | inconclusive: 10.3 µM [cytotoxic, partial curve] | 
25 | Cc1cc(C)c2c(=O)cc(C(=O)NCc3ccc(S(N)(=O)=O)cc3)oc2c1 | inconclusive: 20.6 µM [rising, partial curve] | 
26 | COc1ccccc1NC(=O)CSc1nccn1Cc1ccccc1 | inconclusive: 9.2 µM [cytotoxic, partial curve] | 
27 | Cn1c(=O)oc2cc(S(=O)(=O)NCCC(=O)NC3CCCc4ccccc43)ccc21 (configuration not stated) | inconclusive: 13 µM [cytotoxic, partial curve] | 
28 | CC1Sc2ccc(S(=O)(=O)N3CCC(C(=O)N(C)Cc4ccccc4)CC3)cc2NC1=O (configuration not stated) | inconclusive: 7.31 µM [cytotoxic, full curve, poor fit] | 
29 | COC(=O)c1c(NC(=S)NN2CCN(C)CC2)sc2c1CCC(C)C2 (configuration not stated) | inconclusive: 32.6 µM [cytotoxic, partial curve, poor fit] | 
30 | Cc1c(Cl)cccc1NC(=S)N(C)CCC#N | inconclusive: 6.51 µM [rising, partial curve, poor fit] | 
31 | Cc1ccc(CNC(=O)CCC(=O)Nc2nnc(C(C)C)s2)cc1 | inconclusive: 29.1 µM [rising, single point] | 
32 | O=C1C(=O)c2ccccc2C([O-])=C1[n+]1ccccc1 | inactive | 
33 | C=CCNC(=O)c1c[nH]c2ccc(S(=O)(=O)N(C)c3ccc(OCC)cc3)cc2c1=O | inactive | 
34 | CCCc1cc(=O)oc2cc(C)cc(OCC(=O)NC(Cc3ccc(Cl)cc3)C(=O)O)c12 (configuration not stated) | inactive | 
35 | O=C(O)CCn1cc(C(=O)O)c(-c2ccccc2)n1 | inconclusive: 29.1 µM [rising, single point] | 
36 | Cc1nn2c(=O)cc(COC(=O)COc3ccc(F)cc3)nc2s1 | inconclusive: 29.1 µM [rising, single point] | 
37 | Cc1cc(C)cc(NC(=O)Cn2c(=O)n(Cc3ccco3)c(=O)c3oc4ccccc4c32)c1 | inactive | 
38 | COc1cc2sc(-c3ccc(S(C)(=O)=O)cc3)c(-c3ccc4c(c3)OCO4)c2cc1OC | inactive | 
39 | CC1Cc2cc(/C(O)=C3/C(=O)C(=O)N(CCCn4ccnc4)C3c3ccc(Br)cc3)ccc2O1 (configuration not stated) | inactive | 
40 | COC(=O)c1ccccc1NC(=O)Nc1c(C)n(C)n(-c2ccccc2)c1=O | inconclusive: 29.1 µM [rising, single point] | 
41 | O=C(Nc1cc(Cl)ccc1O)c1cc(-c2ccco2)on1 | inactive | 
42 | CC(Sc1nc2ccccc2s1)C(=O)N(C)Cc1ccccc1 (configuration not stated) | inconclusive: 14.6 µM [cytotoxic, partial curve] | 
43 | Cc1ccc(NC(=O)CSc2nc(NS(=O)(=O)c3ccc(C)cc3)cc(=O)[nH]2)cc1 | active: 4.11 µM | 
44 | CCOC(=O)CC1(C)N(S(=O)(=O)c2ccc(C)cc2)c2ccccc2N1S(=O)(=O)c1ccc(C)cc1 | inconclusive: 18.4 µM [cytotoxic, single point] | 
45 | Cc1ccc(C(=O)Nc2ccc(CN3CCCCC3)cc2)c(C)c1 | inconclusive: 2.91 µM [rising, partial curve] | 
46 | O=C(N/C(=C\c1cccnc1)c1nc2ccccc2[nH]1)c1cccc(Br)c1 | inconclusive: 9.2 µM [cytotoxic, partial curve] | 

3 of the compounds above, in markdown:

| Row | SMILES | Potency | activity change, negative = cytotoxicity |
| --- | --- | --- | --- |
| 33 | C=CCNC(=O)c1c[nH]c2ccc(S(=O)(=O)N(C)c3ccc(OCC)cc3)cc2c1=O | inactive |  |
| 34 | CCCc1cc(=O)oc2cc(C)cc(OCC(=O)NC(Cc3ccc(Cl)cc3)C(=O)O)c12 (configuration not stated) | inactive |  |
| 35 | O=C(O)CCn1cc(C(=O)O)c(-c2ccccc2)n1 | inconclusive: 29.1 µM [rising, single point] |  |

Remaining list, next part:

Row | SMILES | Potency | activity change, negative = cytotoxicity
47 | COc1ccc(-c2ccc([C@H]3[C@@H]4C=CCC[C@@]4(C)C(=O)N3Cc3ccccc3)c(F)c2)cc1OC | inconclusive: 29.1 µM [cytotoxic, single point] | 
48 | CCN(CC(=O)NCc1cccs1)c1nnnn1-c1ccccc1 | inconclusive: 18.4 µM [cytotoxic, single point] | 
49 | CN(Cc1ccccc1)C(=O)C1CCCN1S(=O)(=O)c1ccc(Cl)cc1 (configuration not stated) | inconclusive: 20.6 µM [cytotoxic, single point] | 
50 | CCOC(=O)CC1=C(C(=O)OCC)C(c2ccc(C)o2)C(C#N)=C(N)O1 (configuration not stated) | inconclusive: 29.1 µM [cytotoxic, single point] | 
51 | CN(CCCOc1ccccc1F)Cc1ccccc1 | inconclusive: 0.184 µM [cytotoxic, full curve, poor fit] | 
52 | Cc1cc2c(NCc3ccccc3)ncnc2s1 | inactive | 
53 | CC1(C)CC(=O)C2=C(C1)Oc1nc3ccccc3cc1C2C(C#N)C#N (configuration not stated) | inconclusive: 20.6 µM [cytotoxic, single point] | 
54 | CCOc1ccccc1N(CC(=O)NC(C)(C)C)C(=O)Cn1nnc(-c2ccc(C)o2)n1 | active: 2.91 µM | 
55 | COc1cccc(C(=O)N2CCN(Cc3cc(Br)ccc3OC)CC2)c1 | inactive | 
56 | Cc1ccc(OCC(=O)Nc2ccc3nc(SCCOc4ccccc4)sc3c2)cc1 | inactive | 
57 | O=C(NCCC1=CCCCC1)C1CCCN(S(=O)(=O)c2ccccc2)C1 (configuration not stated) | active: 9.2 µM | 
58 | CN(NC(=O)c1ccc(Cl)cc1)c1nc(-c2ccccc2)nnc1C(F)(F)F | active: 14.6 µM | 
59 | COc1ccc(/C=C/C(=O)Nc2ccc(C(C)=O)cc2)cc1S(=O)(=O)N1CCOCC1 | inconclusive: 29.1 µM [rising, single point] | 
60 | O=C(OCC(=O)N1CCc2ccccc2C1)c1ccc(N2CCOCC2)c([N+](=O)[O-])c1 | inconclusive: 14.6 µM [cytotoxic, partial curve, poor fit] | 
61 | COc1ccc(CNC(=O)c2ccc3nc(C(C)C)oc3c2)cc1OC | inactive | 
62 | Cc1cc(N2CCc3ccccc32)n2ncnc2n1 | inconclusive: 16.4 µM [cytotoxic, single point] | 
63 | CCN(CC(=O)Nc1ccc2c(c1)OCCO2)S(=O)(=O)c1ccccc1 | inconclusive: 29.1 µM [cytotoxic, single point] | 
64 | O=[N+]([O-])c1ccc(C(=S)N2CCN(c3ccc(F)cc3)CC2)cc1 | inactive | 
65 | O=C(Nc1ccc(Cl)cc1F)c1ccccc1Br | inconclusive: 1.16 µM [rising, partial curve, poor fit] | 
66 | CC(=O)Nc1ccc(S(=O)(=O)NC2(c3ccccc3)C(=O)N(C)C(=O)N(C)C2=O)cc1 | inactive | 
67 | O=C(Nc1cccc2ccccc12)OC1C=CS(=O)(=O)C1 (configuration not stated) | inconclusive: 23.1 µM [cytotoxic, single point] | 
